Experimental findings from article PMC5505151, “A proteomic analysis of LRRK2 binding partners reveals interactions with multiple signaling components of the WNT/PCP pathway” (Molecular Neurodegeneration, 2017) are described below.

By UniProt entry, the sequences of proteins in these tests, tags left out.
UniProt Q5S007: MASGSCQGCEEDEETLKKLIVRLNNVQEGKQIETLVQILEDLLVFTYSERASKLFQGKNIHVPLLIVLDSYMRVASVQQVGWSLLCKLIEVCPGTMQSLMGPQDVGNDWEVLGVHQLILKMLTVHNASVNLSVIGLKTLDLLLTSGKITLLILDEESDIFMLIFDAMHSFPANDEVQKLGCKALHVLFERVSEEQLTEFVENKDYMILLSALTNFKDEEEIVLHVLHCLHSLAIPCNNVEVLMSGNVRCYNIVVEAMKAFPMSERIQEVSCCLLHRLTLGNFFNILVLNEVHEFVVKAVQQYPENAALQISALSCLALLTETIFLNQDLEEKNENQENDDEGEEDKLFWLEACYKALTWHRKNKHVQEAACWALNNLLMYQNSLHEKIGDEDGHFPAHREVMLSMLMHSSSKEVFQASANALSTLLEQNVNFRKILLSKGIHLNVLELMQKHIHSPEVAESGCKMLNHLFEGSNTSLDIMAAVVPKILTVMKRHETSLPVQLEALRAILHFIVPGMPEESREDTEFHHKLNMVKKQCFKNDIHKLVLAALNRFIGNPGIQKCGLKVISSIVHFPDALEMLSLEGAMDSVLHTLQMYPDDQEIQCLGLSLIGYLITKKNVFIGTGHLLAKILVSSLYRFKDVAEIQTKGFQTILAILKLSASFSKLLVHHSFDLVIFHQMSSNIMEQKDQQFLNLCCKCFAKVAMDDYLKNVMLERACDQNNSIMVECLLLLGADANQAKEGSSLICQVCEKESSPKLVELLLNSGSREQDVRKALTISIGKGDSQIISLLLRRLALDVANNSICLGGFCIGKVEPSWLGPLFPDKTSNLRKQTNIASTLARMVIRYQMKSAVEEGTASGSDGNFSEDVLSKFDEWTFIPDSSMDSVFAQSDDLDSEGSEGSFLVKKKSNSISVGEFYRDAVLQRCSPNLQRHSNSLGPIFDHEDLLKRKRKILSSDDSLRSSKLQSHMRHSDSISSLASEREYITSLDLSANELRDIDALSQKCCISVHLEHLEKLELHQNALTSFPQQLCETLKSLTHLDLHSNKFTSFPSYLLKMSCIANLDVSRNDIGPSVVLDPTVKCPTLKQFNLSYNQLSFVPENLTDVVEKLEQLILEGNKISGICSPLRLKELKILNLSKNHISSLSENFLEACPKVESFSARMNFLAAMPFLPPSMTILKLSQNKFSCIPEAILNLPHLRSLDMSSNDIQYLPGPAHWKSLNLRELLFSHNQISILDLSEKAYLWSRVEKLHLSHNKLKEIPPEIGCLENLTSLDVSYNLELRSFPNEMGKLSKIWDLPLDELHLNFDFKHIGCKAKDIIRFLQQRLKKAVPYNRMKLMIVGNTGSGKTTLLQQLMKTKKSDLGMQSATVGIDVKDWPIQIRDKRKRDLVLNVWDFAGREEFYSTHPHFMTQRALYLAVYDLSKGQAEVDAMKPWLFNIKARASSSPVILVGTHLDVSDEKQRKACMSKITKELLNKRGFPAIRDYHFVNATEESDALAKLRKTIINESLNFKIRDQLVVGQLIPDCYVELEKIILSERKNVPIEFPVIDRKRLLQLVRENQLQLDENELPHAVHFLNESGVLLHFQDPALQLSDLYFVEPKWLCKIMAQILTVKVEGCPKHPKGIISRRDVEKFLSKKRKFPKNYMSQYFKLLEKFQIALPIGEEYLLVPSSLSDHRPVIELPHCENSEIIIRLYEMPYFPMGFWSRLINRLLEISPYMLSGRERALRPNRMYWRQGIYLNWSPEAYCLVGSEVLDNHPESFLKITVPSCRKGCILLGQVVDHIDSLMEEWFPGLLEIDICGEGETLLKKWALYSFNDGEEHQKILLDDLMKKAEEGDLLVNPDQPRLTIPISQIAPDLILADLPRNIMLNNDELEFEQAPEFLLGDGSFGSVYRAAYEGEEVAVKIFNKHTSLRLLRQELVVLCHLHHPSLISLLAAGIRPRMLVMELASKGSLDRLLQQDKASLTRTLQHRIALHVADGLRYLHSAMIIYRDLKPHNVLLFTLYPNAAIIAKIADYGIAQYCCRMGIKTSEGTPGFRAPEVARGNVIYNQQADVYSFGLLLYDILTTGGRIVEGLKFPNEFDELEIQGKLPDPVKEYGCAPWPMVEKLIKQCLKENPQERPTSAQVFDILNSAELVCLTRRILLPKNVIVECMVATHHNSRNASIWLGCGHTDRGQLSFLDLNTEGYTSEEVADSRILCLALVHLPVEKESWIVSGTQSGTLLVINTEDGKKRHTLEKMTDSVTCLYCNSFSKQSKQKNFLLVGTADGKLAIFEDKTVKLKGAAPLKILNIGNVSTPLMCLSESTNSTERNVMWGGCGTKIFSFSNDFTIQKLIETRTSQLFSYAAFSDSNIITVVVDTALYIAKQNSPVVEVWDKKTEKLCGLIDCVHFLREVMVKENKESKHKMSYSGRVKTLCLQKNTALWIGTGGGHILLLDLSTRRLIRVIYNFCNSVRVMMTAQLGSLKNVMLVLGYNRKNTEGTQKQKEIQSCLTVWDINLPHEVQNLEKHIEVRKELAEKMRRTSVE
UniProt P10244: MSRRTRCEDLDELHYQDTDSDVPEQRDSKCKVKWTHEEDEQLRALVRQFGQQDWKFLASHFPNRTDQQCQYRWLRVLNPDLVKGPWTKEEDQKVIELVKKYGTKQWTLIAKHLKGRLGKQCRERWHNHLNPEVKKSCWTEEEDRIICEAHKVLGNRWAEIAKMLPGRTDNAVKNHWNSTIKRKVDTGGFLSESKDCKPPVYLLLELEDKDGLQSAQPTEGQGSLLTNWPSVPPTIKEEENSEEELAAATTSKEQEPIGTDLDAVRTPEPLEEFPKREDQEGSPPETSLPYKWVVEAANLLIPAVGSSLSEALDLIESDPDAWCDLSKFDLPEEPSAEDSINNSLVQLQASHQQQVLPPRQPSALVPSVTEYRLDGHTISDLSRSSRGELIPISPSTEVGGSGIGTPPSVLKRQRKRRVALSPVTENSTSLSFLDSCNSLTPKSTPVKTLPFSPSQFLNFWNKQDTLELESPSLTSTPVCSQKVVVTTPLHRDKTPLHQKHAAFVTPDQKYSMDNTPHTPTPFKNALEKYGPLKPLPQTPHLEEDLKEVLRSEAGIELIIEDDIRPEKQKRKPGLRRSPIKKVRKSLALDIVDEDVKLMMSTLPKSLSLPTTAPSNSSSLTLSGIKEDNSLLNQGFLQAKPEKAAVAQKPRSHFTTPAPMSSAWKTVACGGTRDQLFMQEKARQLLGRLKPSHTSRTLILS
UniProt Q5UIP0: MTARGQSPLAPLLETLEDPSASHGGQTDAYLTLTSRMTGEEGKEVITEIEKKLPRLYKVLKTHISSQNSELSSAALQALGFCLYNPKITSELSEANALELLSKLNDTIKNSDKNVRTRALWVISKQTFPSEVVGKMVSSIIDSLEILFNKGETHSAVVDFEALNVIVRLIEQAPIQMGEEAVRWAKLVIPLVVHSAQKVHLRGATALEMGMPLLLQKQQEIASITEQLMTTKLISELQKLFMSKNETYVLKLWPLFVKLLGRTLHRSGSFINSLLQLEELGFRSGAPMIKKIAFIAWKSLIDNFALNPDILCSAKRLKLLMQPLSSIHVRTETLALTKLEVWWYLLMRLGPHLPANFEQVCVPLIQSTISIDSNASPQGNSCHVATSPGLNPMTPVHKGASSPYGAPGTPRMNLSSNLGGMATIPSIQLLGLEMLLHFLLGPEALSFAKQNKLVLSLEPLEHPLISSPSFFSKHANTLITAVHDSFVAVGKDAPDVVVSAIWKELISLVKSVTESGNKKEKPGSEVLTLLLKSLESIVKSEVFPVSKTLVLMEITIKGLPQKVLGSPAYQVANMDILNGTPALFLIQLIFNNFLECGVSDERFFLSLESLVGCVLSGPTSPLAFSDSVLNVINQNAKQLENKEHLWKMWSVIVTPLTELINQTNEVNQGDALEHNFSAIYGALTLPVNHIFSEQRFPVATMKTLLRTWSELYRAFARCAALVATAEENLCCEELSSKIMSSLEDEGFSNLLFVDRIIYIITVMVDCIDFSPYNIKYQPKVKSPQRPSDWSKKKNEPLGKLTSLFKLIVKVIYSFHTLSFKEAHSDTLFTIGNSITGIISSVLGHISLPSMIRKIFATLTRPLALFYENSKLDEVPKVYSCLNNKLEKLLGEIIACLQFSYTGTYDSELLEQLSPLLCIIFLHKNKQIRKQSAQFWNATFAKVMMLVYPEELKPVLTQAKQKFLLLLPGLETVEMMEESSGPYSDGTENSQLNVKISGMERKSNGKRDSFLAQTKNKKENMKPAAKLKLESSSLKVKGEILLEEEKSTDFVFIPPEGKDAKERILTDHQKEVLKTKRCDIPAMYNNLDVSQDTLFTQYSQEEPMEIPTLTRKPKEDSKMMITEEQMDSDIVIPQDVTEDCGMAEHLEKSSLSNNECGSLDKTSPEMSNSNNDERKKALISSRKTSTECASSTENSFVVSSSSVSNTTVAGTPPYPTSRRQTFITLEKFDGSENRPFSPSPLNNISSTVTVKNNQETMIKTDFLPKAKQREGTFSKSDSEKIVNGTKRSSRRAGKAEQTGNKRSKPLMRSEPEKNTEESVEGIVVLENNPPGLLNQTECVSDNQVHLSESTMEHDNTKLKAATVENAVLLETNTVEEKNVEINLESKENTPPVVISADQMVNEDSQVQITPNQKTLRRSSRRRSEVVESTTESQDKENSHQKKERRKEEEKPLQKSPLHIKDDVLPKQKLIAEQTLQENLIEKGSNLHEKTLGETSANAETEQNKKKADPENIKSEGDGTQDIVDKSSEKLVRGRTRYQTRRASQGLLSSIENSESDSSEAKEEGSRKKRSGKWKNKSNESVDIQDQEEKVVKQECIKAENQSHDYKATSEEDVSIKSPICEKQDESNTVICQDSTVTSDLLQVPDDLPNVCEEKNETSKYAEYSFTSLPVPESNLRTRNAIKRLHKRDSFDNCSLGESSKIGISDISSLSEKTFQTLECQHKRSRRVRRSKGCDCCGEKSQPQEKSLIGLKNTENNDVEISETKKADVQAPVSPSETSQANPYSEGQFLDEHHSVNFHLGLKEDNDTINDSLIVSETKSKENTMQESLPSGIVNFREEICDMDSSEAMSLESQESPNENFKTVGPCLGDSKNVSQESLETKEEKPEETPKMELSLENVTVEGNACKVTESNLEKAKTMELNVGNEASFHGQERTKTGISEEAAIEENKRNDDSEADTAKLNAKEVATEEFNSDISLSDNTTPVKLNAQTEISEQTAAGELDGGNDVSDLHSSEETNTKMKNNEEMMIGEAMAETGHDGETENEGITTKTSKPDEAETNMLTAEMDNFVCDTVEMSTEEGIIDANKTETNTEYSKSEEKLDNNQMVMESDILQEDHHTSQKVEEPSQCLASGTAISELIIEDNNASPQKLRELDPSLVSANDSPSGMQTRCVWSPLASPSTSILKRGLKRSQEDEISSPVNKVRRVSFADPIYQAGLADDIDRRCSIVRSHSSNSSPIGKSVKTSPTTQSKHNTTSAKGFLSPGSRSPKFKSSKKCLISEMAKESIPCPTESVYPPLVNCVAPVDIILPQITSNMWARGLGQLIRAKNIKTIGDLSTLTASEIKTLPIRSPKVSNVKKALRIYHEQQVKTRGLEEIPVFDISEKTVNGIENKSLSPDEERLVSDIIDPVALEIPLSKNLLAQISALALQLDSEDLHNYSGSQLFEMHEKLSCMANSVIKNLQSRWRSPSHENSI
UniProt Q9Z0G0: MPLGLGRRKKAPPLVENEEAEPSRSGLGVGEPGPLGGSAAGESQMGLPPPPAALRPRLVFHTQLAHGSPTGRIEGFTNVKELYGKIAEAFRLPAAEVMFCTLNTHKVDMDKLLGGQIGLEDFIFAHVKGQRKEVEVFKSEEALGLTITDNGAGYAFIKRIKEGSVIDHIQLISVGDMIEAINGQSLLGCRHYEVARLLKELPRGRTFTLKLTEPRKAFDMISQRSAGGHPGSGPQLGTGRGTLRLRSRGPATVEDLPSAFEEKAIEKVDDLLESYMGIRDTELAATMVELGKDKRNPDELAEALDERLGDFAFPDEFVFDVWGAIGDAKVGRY
UniProt Q58FF8: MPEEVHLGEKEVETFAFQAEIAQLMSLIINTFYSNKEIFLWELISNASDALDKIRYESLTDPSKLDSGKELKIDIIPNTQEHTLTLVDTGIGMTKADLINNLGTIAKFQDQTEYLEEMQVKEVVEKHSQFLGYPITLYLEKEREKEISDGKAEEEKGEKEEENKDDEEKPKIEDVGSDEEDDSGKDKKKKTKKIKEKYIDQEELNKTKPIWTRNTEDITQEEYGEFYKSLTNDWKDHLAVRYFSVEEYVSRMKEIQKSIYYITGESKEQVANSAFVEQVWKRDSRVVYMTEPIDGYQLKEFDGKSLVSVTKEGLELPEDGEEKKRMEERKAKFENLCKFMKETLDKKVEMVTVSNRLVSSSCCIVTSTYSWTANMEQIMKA

The target of assay [1] is 2xmyc-Lrrk2-WT (Leucine-rich repeat kinase 2, wild type) (human) (UniProt Q5S007). The assay can be described thus: affinity purification with mass spectrometry; HEK293T transiently transfected with human 2xmyc-Lrrk2-WT, lysed in NP40 buffer 24 h post transfection; pull-down with antibodies against C-MYC; SDS-PAGE, silver staining, in-gel tryptic digestion, LC-MS/MS; only proteins absent in the IgG control counted.

Assay [2] addresses endogenous LRRK2 (Leucine-rich repeat kinase 2) (mouse (endogenous in SN4741 and in mouse ventral midbrain)) (UniProt Q5S006). The assay can be described thus: affinity purification with mass spectrometry; SN4741 cells, endogenous LRRK2 immunoprecipitated; NP40 buffer, SDS-PAGE, Coomassie staining, in-gel tryptic digestion, LC-MS/MS; only proteins absent in the IgG control counted.

Assay [3] shares this target. The assay can be described thus: affinity purification with mass spectrometry; SN4741 cells, endogenous LRRK2 immunoprecipitated; buffer with 0.1% sodium deoxycholate, tryptic digestion directly on beads, LC-MS/MS; only proteins absent in the IgG control counted.
Assay [4] deals with 2xmyc-Lrrk2-WT (Leucine-rich repeat kinase 2, wild type) (human) (UniProt Q5S007). The assay can be described thus: affinity purification with mass spectrometry; HEK293T transiently transfected with human 2xmyc-Lrrk2-WT, lysed in NP40 buffer 24 h post transfection; pull-down with antibodies against C-MYC; SDS-PAGE, silver staining, in-gel tryptic digestion, LC-MS/MS; only proteins absent in the IgG control counted. This is another data set of the same source.

Like-named read-outs stand apart in the source and are kept apart here. Results are given in words; binding and its absence hold for the method and conditions named. Binding seen in cells or lysates may run through a third protein. These calls come from enrichment with a bait or labelling near it, and not all partners need be listed.

For “Tubulin beta-4A chain (from UniProt P04350 1-444)”, the binding result in assay [1] is “binds”. For “Myb-related protein B (from UniProt P10244 1-700)”, the binding entry in assay [1] is on record as “binds”. Still for that read-out and setting: under “Centromere protein F (from UniProt P49454 1-3114)” stands “binds”; under “SHROOM-3 (endogenous, HEK293T) (from UniProt Q8TF72 1-1996)”, “binds”. Still for that read-out and setting: to “Telomere-associated protein RIF1 (from UniProt Q5UIP0 1-2472)” belongs “binds”.

As to “PDZ domain-containing protein GIPC1 (endogenous, mouse) (from UniProt Q9Z0G0 1-333)”, the binding entry in assay [2] and in assay [3] was “binds” throughout. Regarding “Putative heat shock protein HSP 90-beta 2 (from UniProt Q58FF8 1-381)”, the binding entry in assay [1] was “binds”.

B1: C-Jun-amino-terminal kinase-interacting protein 3 (endogenous, HEK293T) (protein, UniProt Q9UPT6 1-1336)
chain: MMEIQMDEGGGVVVYQDDYCSGSVMSERVSGLAGSIYREFERLIHCYDEEVVKELMPLVVNVLENLDSVLSENQEHEVELELLREDNEQLLTQYEREKALRRQAEEKFIEFEDALEQEKKELQIQVEHYEFQTRQLELKAKNYADQISRLEERESEMKKEYNALHQRHTEMIQTYVEHIERSKMQQVGGNSQTESSLPGRRKERPTSLNVFPLADGTVRAQIGGKLVPAGDHWHLSDLGQLQSSSSYQCPQDEMSESGQSSAAATPSTTGTKSNTPTSSVPSAAVTPLNESLQPLGDYGVGSKNSKRAREKRDSRNMEVQVTQEMRNVSIGMGSSDEWSDVQDIIDSTPELDMCPETRLDRTGSSPTQGIVNKAFGINTDSLYHELSTAGSEVIGDVDEGADLLGEFSVRDDFFGMGKEVGNLLLENSQLLETKNALNVVKNDLIAKVDQLSGEQEVLRGELEAAKQAKVKLENRIKELEEELKRVKSEAIIARREPKEEAEDVSSYLCTESDKIPMAQRRRFTRVEMARVLMERNQYKERLMELQEAVRWTEMIRASREHPSVQEKKKSTIWQFFSRLFSSSSSPPPAKRPYPSVNIHYKSPTTAGFSQRRNHAMCPISAGSRPLEFFPDDDCTSSARREQKREQYRQVREHVRNDDGRLQACGWSLPAKYKQLSPNGGQEDTRMKNVPVPVYCRPLVEKDPTMKLWCAAGVNLSGWRPNEDDAGNGVKPAPGRDPLTCDREGDGEPKSAHTSPEKKKAKELPEMDATSSRVWILTSTLTTSKVVIIDANQPGTVVDQFTVCNAHVLCISSIPAASDSDYPPGEMFLDSDVNPEDPGADGVLAGITLVGCATRCNVPRSNCSSRGDTPVLDKGQGEVATIANGKVNPSQSTEEATEATEVPDPGPSEPETATLRPGPLTEHVFTDPAPTPSSGPQPGSENGPEPDSSSTRPEPEPSGDPTGAGSSAAPTMWLGAQNGWLYVHSAVANWKKCLHSIKLKDSVLSLVHVKGRVLVALADGTLAIFHRGEDGQWDLSNYHLMDLGHPHHSIRCMAVVYDRVWCGYKNKVHVIQPKTMQIEKSFDAHPRRESQVRQLAWIGDGVWVSIRLDSTLRLYHAHTHQHLQDVDIEPYVSKMLGTGKLGFSFVRITALLVAGSRLWVGTGNGVVISIPLTETVVLHRGQLLGLRANKTSPTSGEGARPGGIIHVYGDDSSDRAASSFIPYCSMAQAQLCFHGHRDAVKFFVSVPGNVLATLNGSVLDSPAEGPGPAAPASEVEGQKLRNVLVLSGGEGYIDFRIGDGEDDETEEGAGDMSQVKPVLSKAERSHIIVWQVSYTPE
For the molecule B1, in assay [4], the binding result is recorded as “binds”.
